Results: PubChem BioAssay AID445 (National Center for Advancing Translational Sciences (NCATS), 2006)
Some of the results follow. These are further read-outs of the screen, such as a control signal, another cell line or another target. No call is given for them. Most of these compounds were active or inconclusive in the main read-out, so they are no random draw. The note in brackets gives the kind of curve behind each potency; many fits are weak.

Experiment: IkB Signaling
Conditions: ABC-DLBCL IkBa-CBG/CBR dual luciferase ratio (green luciferase fused to IkBa over red control in OCI-Ly3 lymphoma cells), 4 h
How it was run: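 In this assay, an IκBα–CBG68 fusion accumulates when IKK-driven degradation is blocked; native CBR normalizes for cell number. OCI-Ly3 cells were treated 4 h with compound and doxycycline, then green and red light read after Chroma-Glo addition.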

[1] = measured here: control luc red channel unless noted

COc1ccccc1OCC(=O)Nc1cccc(-c2nc3ccccc3o2)c1
AC50 [1]: 10 µM [falling, partial curve]

CNC(=O)c1ccccc1NC(=O)c1cccc(S(=O)(=O)N2CCC(C)CC2)c1
AC50 [1]: 20 µM [falling, partial curve]

COc1ccc(N2CCN(C(=O)c3cn(CC(C)C)c(=O)c4c3c3ccccc3n4C)CC2)cc1
AC50 [1]: 15.8 µM [falling, partial curve]

CCc1ccc(-c2nn(CC(=O)Nc3ccccc3)c3c2cnc2ccc(F)cc23)cc1
AC50 [1]: 0.0398 µM [rising, full curve, poor fit]

COC(=O)C1=C(C)NC(C)=C([N+](=O)[O-])[C@H]1c1ccccc1C(F)(F)F
AC50 [1]: 50.1 µM [falling, partial curve, poor fit]

CC(C)(C)C1CCc2c(sc(NC(=O)Cn3nnc(-c4ccccc4F)n3)c2C#N)C1 (stereo not given)
AC50 [1]: 12.6 µM [falling, partial curve]

O=C(Cn1c(=O)c2cccn2c2ccccc21)Nc1cc(F)ccc1F
AC50 [1]: 39.8 µM [falling, single point]

COc1ccc(-c2[nH]ncc2C(=O)NCc2ccccc2C)cc1
AC50 [1]: 0.398 µM [rising, full curve]

Cc1onc(-c2ccccc2Cl)c1C(=O)Oc1cc(F)cc(F)c1
AC50 [1]: 25.1 µM [falling, single point]

COC(=O)c1ccccc1NC(=O)Cn1c(=O)n(-c2cccc(OC)c2)c(=O)c2c(C)c(C(=O)N(C)C)sc21
AC50 [1]: 5.01 µM [rising, partial curve]

CC1(C)CC2CC(C)(CN2c2ncnc3ccccc23)C1 (stereo not given)
AC50 [1]: 6.31 µM [falling, partial curve]

Clc1cccc(-n2ncc3c(N4CCCCC4)ncnc32)c1
AC50 [1]: 15.8 µM [falling, partial curve]

CCN(c1cccc(C)c1)S(=O)(=O)c1ccc2[nH]cc(C(=O)NCCCOC)c(=O)c2c1
AC50 [1]: 20 µM [falling, partial curve]

CC1=C(C(=O)Nc2cc(-c3cccc(F)c3)[nH]n2)C2(CCCCC2)OC1=O
AC50 [1]: 5.01 µM [falling, partial curve]

CCC1CN(C(=O)N2CCC(C(=O)NCc3cccc(C)c3)CC2)c2ccccc2O1 (stereo not given)
AC50 [1]: 10 µM [falling, partial curve]

O=C(Cn1c(=O)nc(-c2ccccc2F)c2cc(Cl)ccc21)N1CCN(c2ccccc2F)CC1
AC50 [1]: 15.8 µM [falling, partial curve]

COc1ccc(CNC(=O)c2c3c(nc4ccccc24)C(=O)N(C2CCCCC2)C3)c(OC)c1
AC50 [1]: 12.6 µM [falling, partial curve]

COC(=O)c1scc(-c2ccc(C)cc2)c1S(=O)(=O)Nc1cc(OC)c(OC)c(OC)c1
AC50 [1]: 12.6 µM [falling, partial curve]

CCCCCCCCC(=O)NCc1cc(OC)c(O)cc1I
AC50 [1]: 25.1 µM [falling, partial curve, poor fit]

CCOC(=O)c1ccc(Nc2c(-c3ccc(O)c(OC)c3)nc3nc[nH]n23)cc1
AC50 (measured here: IkB-luc green channel): 25.1 µM [rising, single point] | AC50 (measured here: control luc red channel): 39.8 µM [rising, single point]

COc1ccc(CNc2oc(-c3ccccc3)nc2C#N)cc1
AC50 [1]: 39.8 µM [falling, single point]

COc1cc(NS(=O)(=O)c2ccc3c(c2)CCN3S(C)(=O)=O)cc(OC)c1
AC50 [1]: 39.8 µM [falling, partial curve, poor fit]

Cc1ccccc1-c1nc(CS(=O)(=O)CC(=O)NCC(C)c2ccccc2)c(C)o1 (stereo not given)
AC50 [1]: 15.8 µM [falling, partial curve]

O=C(COc1ccccc1Cl)NCC1(N2CCOCC2)CCCCC1
AC50 [1]: 20 µM [falling, single point]

O=C(NCCc1ccccc1)c1cnc2sc(N3CCCC3)nn2c1=O
AC50 [1]: 1.26 µM [rising, partial curve]

CCCc1nn2c(=O)cc(COC(=O)c3cccc(NC(=O)COc4ccccc4C)c3)nc2s1
AC50 [1]: 31.6 µM [falling, partial curve]

CCOC(=O)c1c(C)[nH]c(CCC(=O)Nc2cc(C)ccc2OC)c1C
AC50 [1]: 0.0126 µM [falling, full curve, poor fit]

c1ccc(-c2ccc(-n3ccnc3)cc2)cc1
AC50 [1]: 1 µM [rising, partial curve]

CCN(CC)S(=O)(=O)c1ccc2oc(C(=O)NCC3COc4ccccc4O3)c(C)c2c1 (stereo not given)
AC50 [1]: 7.94 µM [falling, partial curve]

COc1cc(NC(=O)CC2C(=O)N(c3ccc(Cl)cc3)C(=O)N2Cc2cccs2)cc(OC)c1 (stereo not given)
AC50 [1]: 25.1 µM [falling, partial curve]

Cc1ccc(C(=O)NCc2ccc(N(C)C)cc2)cc1NC(=O)c1nsc2ccccc12
AC50 [1]: 1 µM [falling, partial curve]

CN1C(C(=O)Nc2ccc(F)cc2F)=CC(c2ccco2)=NS1(=O)=O
AC50 [1]: 15.8 µM [falling, partial curve]

O=C(CSCc1ccccc1Cl)N1CCN(c2ccc(F)cc2)CC1
AC50 [1]: 25.1 µM [falling, single point]

Cc1cccc(C)c1NC(=O)c1oc2ccc3c(c2c1C)C(=O)CC(C)(C)O3
AC50 [1]: 20 µM [falling, single point]

O=C(Cn1ncc2c1-c1ccccc1OC2)N1CCN(c2ccccc2F)CC1
AC50 [1]: 25.1 µM [falling, single point]

COc1ccccc1CNC(=O)C1CCCN(S(=O)(=O)c2ccc3c(c2)CCCN3C(C)=O)C1 (stereo not given)
AC50 [1]: 0.1 µM [falling, full curve, poor fit]

O=C(CSc1nc2ccccc2o1)Nc1ccccc1N1CCCCCC1
AC50 [1]: 25.1 µM [falling, partial curve]

CCc1nn2c(=O)cc(COC(=O)c3cccc(NC(=O)c4ccccc4Cl)c3)nc2s1
AC50 [1]: 15.8 µM [falling, single point]

Cc1ccc(CNC(=O)C2CCCN(S(=O)(=O)c3cccc4nsnc34)C2)cc1 (stereo not given)
AC50 [1]: 5.01 µM [falling, partial curve]
